# In PubChem BioAssay AID2685 (National Center for Advancing Translational Sciences (NCATS), 2010):
# The whole screen tested about 320,000 compounds, of which about 2,100 (0.66%) were called active. Inconclusive results, whose numbers are uncertain, are shown with a selection of clear calls. The call rests on the fitted dose curve; in most records, active means well fitted inhibition curve with a large enough effect in the signal ratio, with a control signal flat (not every such curve was filed as active); inconclusive means small, poorly fitted or top-dose-only effect, or effect the other way, or a change in a side signal; inactive means flat fitted curve, though single readings scatter; the % refers to the signal ratio. A potency beside an inconclusive call is a rough fit, not a confirmed value.
# Experiment: qHTS Assay for Lipid Storage Modulators in Drosophila S3 Cells
# Conditions: BODIPY lipid droplet fluorescence, 18-24 h, cells fed with added oleic acid; lipid storage change, negative = inhibition: at 46.1 µM (top of the series) unless noted
# Summary of the method: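 Laser-scanning cytometry quantifies lipid droplet accumulation (500–530 nm total intensity; droplet/cell object ratio) in oleic acid-fed (400 uM added) Drosophila S3 cells treated with a concentration series. 20 uM Triacsin C defined 100% inhibition.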
# On the % scale 0 is the no-effect control and ±100 the full control effect; potency means the concentration at half of the fitted maximal effect.
SMILES,"lipid storage change, negative = inhibition",Potency,outcome
Nc1cnn(-c2ccccc2)c(=O)c1Cl,inconclusive: 5.51%,,
CC(=O)N1CC(=O)Nc2ccc(Cl)cc2C1c1ccc(F)cc1 (stereo unspecified),,"inconclusive: 0.651 µM [falling, full curve, poor fit]",
OCCNCCc1c[nH]c2ccc(OCc3ccccc3)cc12,,"inconclusive: 29.1 µM [activator, single point]",
CC(C)C(=O)Nc1ccc(S(=O)(=O)N2CC3CC(C2)c2cccc(=O)n2C3)cc1 (stereo unspecified),inconclusive: -3.29%,,
Oc1ccc(Br)cc1CN1CCN(c2ccccc2)CC1,inconclusive: 30%,,
COc1c(C=C2C(=O)NC(=O)NC2=O)c(CCN(C)C(=O)c2ccccc2)cc2c1OCO2,,"inconclusive: 7.31 µM [falling, partial curve, poor fit]",
CCN1CCN(CC(c2ccccc2)c2ccccc2)CC1,inconclusive: 62.7%,,
NC12CN3CN(CN(C3)C1)C2 (tested in a mixture with another compound),inconclusive: 4.92%,,
CN1C(=O)C(=Cc2ccc(N3CCOCC3)o2)C(=O)N(C)C1=O,inconclusive: -38.5%,,
COC(=O)c1c(C)n(Cc2ccccc2)c2ccc(O)cc12,inconclusive: 23.8%,,
c1ccc2c(CCNCc3ccc4c(c3)OCO4)c[nH]c2c1,inconclusive: -19.1%,,
Cc1ccc(C)c(N2CCN(C(=O)CCS(=O)(=O)c3ccc4c(c3)oc(=O)n4C)CC2)c1,,"inconclusive: 0.58 µM [activator, single point]",
COc1cc2occc2c2oc(=O)ccc12,inconclusive: 20.9%,,
Cc1cc(O)c(CN2CC=C(c3ccccc3)CC2)cc1C(C)C,,active: 18.4 µM,
COC(=O)CN1C(=O)C2(C(C(=O)OC)=C(N)Oc3ccccc32)C2=C1CC(C)(C)CC2=O (stereo unspecified),inconclusive: 22.9%,,
O=C(c1ccc(N2CCCCCC2)c([N+](=O)[O-])c1)N1CCC2(CC1)OCCO2,inconclusive: 12.7%,,
CN1CCN(c2ccc(C(N)=O)cc2N)CC1,inconclusive: -11.3%,,
CNC(=S)N1CCN(CCN=Cc2c(O)n(-c3ccc(C)cc3)c(=S)[nH]c2=O)CC1,inactive,,
CN1CCN(Cc2nc3ccccc3n2C)CC1,inconclusive: -5.43%,,
CCCCCCCCC(=O)NCc1ccc(O)c(OC)c1,inconclusive: -25.7%,,
CC(=O)Nc1ccccc1OC(=O)N1CCOCC1,,active: 18.4 µM,
COc1ccc(-c2nc3ccc(C(=O)N4CCC5(CC4)OCCO5)cc3nc2-c2ccc(OC)cc2)cc1,inconclusive: -57.1%,,
Cc1ccc(/C=C2\C(=O)NC(=O)N(CC3CCCO3)C2=O)s1 (stereo unspecified),inconclusive: -28.4%,,
CC(=O)N1CC(=O)Nc2ccc(F)cc2C1c1ccccc1 (stereo unspecified),inconclusive: -41.4%,,
C/C=C(\C)C(=O)N[C@@H](c1ccccc1)[C@@H](O)C(=O)O[C@H]1C[C@@]2(O)[C@@H](OC(=O)c3ccccc3)C3[C@](C)(C(=O)[C@H](O)C(=C1C)C2(C)C)[C@@H](O)C[C@H]1OC[C@@]31OC(C)=O (stereo partly specified),inconclusive: 0.0492%,,
Cc1cc(OC(=O)c2ccco2)c2c3c(c(=O)oc2c1)CCC3,inconclusive: -17.2%,,

# A stretch from the list above:
SMILES,"lipid storage change, negative = inhibition",Potency,outcome
CN1CCN(c2ccc(C(N)=O)cc2N)CC1,inconclusive: -11.3%,,
CNC(=S)N1CCN(CCN=Cc2c(O)n(-c3ccc(C)cc3)c(=S)[nH]c2=O)CC1,inactive,,
CN1CCN(Cc2nc3ccccc3n2C)CC1,inconclusive: -5.43%,,
CCCCCCCCC(=O)NCc1ccc(O)c(OC)c1,inconclusive: -25.7%,,
CC(=O)Nc1ccccc1OC(=O)N1CCOCC1,,active: 18.4 µM,
COc1ccc(-c2nc3ccc(C(=O)N4CCC5(CC4)OCCO5)cc3nc2-c2ccc(OC)cc2)cc1,inconclusive: -57.1%,,

# Remaining list, next part:

SMILES,"lipid storage change, negative = inhibition",Potency,outcome
CSC1=NP(=S)(SC)N2CCCC2=C1C#N (stereo unspecified),inconclusive: 9.04%,,
Fc1ccc(CNCCc2c[nH]c3ccccc23)cc1,,"inconclusive: 29.1 µM [activator, single point]",
CCOC(=O)[C@@]1(C#N)C(c2ccc(Cl)c(Cl)c2)[C@H](C(N)=O)N2C=C(C(C)=O)C=C[C@H]21 (stereo partly specified),,"inconclusive: 0.0231 µM [falling, full curve]",
CCN(CC)c1ccc(N=Cc2c(O)[nH]c(=O)[nH]c2=O)cc1,,"inconclusive: 0.291 µM [falling, full curve]",
CC(C)(Cl)[N+](=O)[O-],inconclusive: 29.4%,,
C=CCN1C(=O)/C(=C/c2cccs2)C(=O)NC1=S,,"inconclusive: 18.4 µM [cytotoxic, partial curve]",
O=C(/C=C/c1ccc2c(c1)OCO2)c1c(O)n(CCc2ccccc2)c(=O)[nH]c1=O,inconclusive: 22.8%,,
N=c1c[n+](CC23CC4CC(CC(C4)C2)C3)[n-]o1,inconclusive: 7.77%,,
CCOc1ccc(N2C(=O)/C(=C\c3cccs3)C(=O)NC2=S)cc1,inconclusive: 8.6%,,
COc1ccc(C(=O)C2CCCN(C3CSCCSC3)C2)c(C)c1 (stereo unspecified),inconclusive: 4.16%,,
COC(=O)C1=C(c2ccc(F)cc2F)C[C@@H]2CC[C@H]1N2C(=O)NC(C)C,,"inconclusive: 18.4 µM [activator, single point]",
C#C[C@]1(O)CCC2C3CCC4=C/C(=N/OCC(=O)NC(C)C(=O)NC(CCSC)C(=O)O)CC[C@]4(C)C3CC[C@@]21C (stereo partly specified),,"inconclusive: 0.259 µM [activator, full curve]",
CON(C)C(=O)Nc1ccc(Cl)cc1,,"inconclusive: 18.4 µM [cytotoxic, partial curve]",
O=C(CCl)NCC1CCCO1 (stereo unspecified),inconclusive: 32.4%,,
CCn1c(O)c(C=Nc2cc(Cl)ccc2Cl)c(=O)n(CC)c1=O,inconclusive: 13.6%,,
CSCCC(N=Cc1c(O)n(-c2ccc(Cl)cc2)c(=O)[nH]c1=O)C(=O)OC(C)(C)C (stereo unspecified),,"inconclusive: 6.51 µM [falling, single point]",
Fc1ccc(C[n+]2c(-c3ccccc3)cc(-c3ccccc3)cc2-c2ccccc2)cc1,,"inconclusive: 6.51 µM [cytotoxic, full curve]",
N/C(=N\N=C/c1ccc(-c2ccc(O)c(C(=O)O)c2)o1)N[N+](=O)[O-],inconclusive: -19.9%,,
Cc1cccc2c1N(N=O)CCC2,,"inconclusive: 29.1 µM [activator, single point]",
CN(C)CP(=O)(O)CN(C)C=O,inconclusive: -6.4%,,
C=CC(C)C(C(=O)c1ccccc1)N(C)C (stereo unspecified),inconclusive: -76.1%,,
Cc1cccc(OP(N)(=O)Oc2cccc(C)c2)c1,inconclusive: 39.9%,,
Cc1c(C(c2ccc(F)cc2)c2c(O)c3ccccc3oc2=O)c(=O)n(-c2ccccc2)n1C (stereo unspecified),inconclusive: 24.3%,,
CCCOc1ccc(N2C(=O)CC(N3CC=C(c4ccccc4)CC3)C2=O)cc1 (stereo unspecified),inconclusive: -2.37%,,
COC(=O)C1=C(c2cccc(OCc3ccccc3)c2)C[C@@H]2CC[C@H]1N2C(=O)NCc1ccc(OC)cc1,inconclusive: -3.78%,,
COc1ccccc1C1CC2CCC(C1OC(C)=O)N2Cc1ccccc1 (stereo unspecified),inconclusive: -20.7%,,

SMILES,"lipid storage change, negative = inhibition",Potency,outcome
CCN(C(=O)COC(=O)C(O)(c1ccccc1)c1ccccc1)c1c(N)n(Cc2ccccc2)c(=O)[nH]c1=O,,,inconclusive [setting not given]
c1ccc(-c2ccc(C(c3ccccc3)n3ccnc3)cc2)cc1 (stereo unspecified),,"inconclusive: 23.1 µM [cytotoxic, single point]",
CCC(=O)Nc1ccc(N2CCN(CC)CC2)c(Cl)c1,,"inconclusive: 36.6 µM [activator, partial curve, poor fit]",
COC(=O)C(O)(c1c[nH]c2ccccc12)C(F)(F)F (stereo unspecified),inconclusive: 31.5%,,
CC(=O)O[C@H]1[C@H]2O[C@]23[C@@H]2CC[C@]4(O)C[C@@H](O)CC[C@]4(C)C2CC[C@]3(C)[C@H]1c1ccc(=O)oc1 (stereo partly specified),inconclusive: -86.3%,,
O=c1cc(C2CCNCC2)[nH][nH]1,,"inconclusive: 3.66 µM [falling, full curve, poor fit]",
CCn1c(C)c(C(=O)Nc2ccc(OC)cc2)c2cc(OC)ccc21,inconclusive: 12.2%,,
CC(=O)c1cn(Cc2ccccc2C#N)c2ccccc12,,"inconclusive: 20.6 µM [cytotoxic, partial curve, poor fit]",
c1ccc2c(c1)CC1CNCc3cccc(c31)S2 (stereo unspecified),inconclusive: 14.1%,,
COc1ccc2c(c1O)-c1c(OC)c(OC)cc3c1[C@H](C2)N(C)CC3,inconclusive: 13%,,
CCCCOc1ccccc1Cn1c(=O)oc2ccc(C)cc21,,"inconclusive: 3.66 µM [activator, partial curve, poor fit]",
CCCCn1c(O)c(C(=O)/C=C/c2c[nH]c3ccccc23)c(=O)[nH]c1=O,inconclusive: 1.47%,,
CCCCC/C(=N/O)c1c(C)[nH]c2ccccc12,inconclusive: -10.6%,,
CCN1CCN(S(=O)(=O)c2cnc(Cl)c(Br)c2)CC1,,"inconclusive: 20.6 µM [falling, single point]",
ClCC(Br)CBr (stereo unspecified),,"inconclusive: 0.13 µM [activator, full curve, poor fit]",
COC(=O)C1=C(c2cc3ccccc3o2)C[C@@H]2CC[C@H]1N2C,inconclusive: -1.39%,,
O=C(O)c1ccc(Cl)nc1,inconclusive: -14.3%,,
CCC1(OC(=O)CN)C(=O)OCc2c1cc1n(c2=O)Cc2cc3ccccc3nc2-1 (stereo unspecified),inconclusive: 8.18%,,
CCOC(=O)C(O)(c1ccc(NC(=O)Oc2ccccc2)cc1)C(F)(F)F (stereo unspecified),inconclusive: 11.5%,,
COC1=CC=C2[C@H]3Cc4ccc(OC)c5c4[C@@]2(CCN3C)[C@H]1O5,inconclusive: 436%,,
C=CCC1(CN2CCCCCC2=O)C(=O)NC(=O)NC1=O,,"inconclusive: 4.11 µM [cytotoxic, full curve, poor fit]",
CCOP(=O)(OCC)c1cc(C)c(O)c(C(C)(C)C)c1,,"inconclusive: 0.411 µM [activator, full curve, poor fit]",
CCC(=Nc1ccc2c(c1)CCC2)c1c(O)n(C2CCCCC2)c(=O)[nH]c1=O,inconclusive: -11.7%,,
CCN(CC)c1ccc(C=C2C(=O)NC(=S)NC2=O)cc1,,"inconclusive: 23.1 µM [cytotoxic, single point]",
